Our source for the binding values is article PMC12886896.

The target in the assay is SET-24::3xFLAG (C. elegans). The assay is described as follows: affinity purification with mass spectrometry; anti-FLAG antibody (F1804) and Dynabeads Protein G on 2 mg extract of young adult SET-24::3xFLAG worms, wild-type N2 as control; wash buffer 25 mM Tris/HCl pH 7.5, 300 mM NaCl, 1.5 mM MgCl2, 1 mM DTT; 4 °C; quadruplicates.

Results are given in words; binding and its absence hold for the method and conditions named. Binding seen in cells or lysates may run through a third protein. A yes stands for co-enrichment or nearness to the bait. Other partners may have been found.

B1: Host Cell Factor 1 (HCF-1) (protein, UniProt G5EC23 1-782)
chain: MDEDVGLEATNYSRGDESRSEEQEKNVVRWRIVQQSTGPNPKPRHGHRAVVLKELIVIFGGGNEGMIDELHAYNTQKREWTAPQCCGDVPTPAAAFGAISLGNKIYRFGGMTEYGKYTNDLYELQSTRWEWRRLNPRVHSNGHLPCPRIGHSFVVSQKSQKAYVFGGLSNDLNDPKRNVPHYLDDLYVINLSGPQHLIWEKLNATGPGPISRESHTAVIYEKDSISRMVVYGGMNGVRLGDLWYLNLNTLHWTEIKFDDPRTGIPPMPRSLHSSVLIGDKMFVYGGWVPLLEHASTEQQTEKEWKCTSSLGCWNITEDRWVPLHLYCSDEDTIPRGRAGHCAAAVGDRMYIWSGRDGYRKAWSNQVCCRDMWLLDTILPEQPGKVQLGRAGFNSLEISWPIVQGASGYFLQIGFGDAKEQSVSPIKRATTSPRKQPSIVPPSQKETEQSPKKPQGTAPSIISTQGTTYTAPADPKPATDEGGLPQDLFEDTEKNETASPKRSNDAQSADSSTCEQKKTDESGLEEDSEKDQKPSDAGETDEMKEENGDDDLPWFDVGIIDKATINVTHYFNDRQQSLEKQLNDLIDHNAFKCVNDSVFTTEDKIPLINGQSYRFRVSAINGLGKGAWSETASCKTCVPGYPSAPSSIRITKSHEGAQLTWEPPSNTNISGKIIEYSVYLAVKNQSANSADSQLAFMRVYCGPQADCQVLQSNLGTAFVDQTNKPAIIFRIAARNEKGYGPATQVRWLQDQQKIPVRTNYPNNSGFIYQQHGGQQKRARFDHQ
Take B1: the binding entry is listed as “binds”.
